In publication PMC8140096 one finds binding data, which are given here for two substances.

By UniProt entry, the sequences of proteins in these tests, tags left out. Residues count along the entry.
UniProt Q38854, residues 59-717: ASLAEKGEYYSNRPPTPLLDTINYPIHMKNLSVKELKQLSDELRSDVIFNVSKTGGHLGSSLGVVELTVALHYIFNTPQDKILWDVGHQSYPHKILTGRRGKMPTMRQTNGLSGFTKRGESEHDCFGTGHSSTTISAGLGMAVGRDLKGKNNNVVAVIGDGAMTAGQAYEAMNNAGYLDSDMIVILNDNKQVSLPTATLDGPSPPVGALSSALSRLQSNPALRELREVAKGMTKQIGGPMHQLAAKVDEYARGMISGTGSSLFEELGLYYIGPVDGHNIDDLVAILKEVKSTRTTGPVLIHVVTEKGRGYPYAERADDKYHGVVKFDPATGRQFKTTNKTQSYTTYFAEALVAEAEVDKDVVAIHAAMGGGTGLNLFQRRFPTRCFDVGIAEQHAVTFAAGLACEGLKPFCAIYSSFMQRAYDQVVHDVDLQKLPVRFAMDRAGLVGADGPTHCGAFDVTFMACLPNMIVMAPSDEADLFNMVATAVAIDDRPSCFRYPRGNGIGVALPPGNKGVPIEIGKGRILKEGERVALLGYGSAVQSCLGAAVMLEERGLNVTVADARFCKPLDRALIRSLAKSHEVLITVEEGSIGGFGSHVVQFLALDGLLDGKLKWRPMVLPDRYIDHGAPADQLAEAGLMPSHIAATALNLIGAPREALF
UniProt P31170, residues 44-227: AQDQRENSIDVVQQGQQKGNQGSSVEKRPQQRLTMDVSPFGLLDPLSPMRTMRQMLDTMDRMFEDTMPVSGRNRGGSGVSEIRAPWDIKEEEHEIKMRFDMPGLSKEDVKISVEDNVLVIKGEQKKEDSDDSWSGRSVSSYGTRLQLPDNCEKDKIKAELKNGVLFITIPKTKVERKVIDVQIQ

Results are given in words; binding and its absence hold for the method and conditions named. Some binding calls cover weakened binding; strength is not graded here.

The target in test [1] is Arabidopsis thaliana 1-deoxy-D-xylulose 5-phosphate synthase (59-717), C-terminal hexahistidine-FLAG tandem tag (Arabidopsis thaliana) (UniProt Q38854). Kind of test: cryo-EM structure; His-Hsp21 and DXPS-His-FLAG co-expressed in E. coli at 37 °C, purified together (HisTrap, anti-FLAG), 0.7 mg/mL; 3D classification gave free DXPS (4.0 Å) and Hsp21-DXPS (3.7 Å); both purified.

Test [2] has as its target untagged version of Arabidopsis thaliana Hsp21 (Arabidopsis thaliana) (UniProt P31170). Kind of test: cryo-EM structure; purified Hsp21 without substrate, 1 mg/mL; tetrahedral symmetry imposed, 4.6 Å; both purified.

Take “Arabidopsis thaliana plastid small heat shock protein Hsp21 (44-227), N-terminal hexahistidine tag (from UniProt P31170 44-227)”: the binding result in test [1] was “binds”.
Take “untagged version of Arabidopsis thaliana Hsp21 (from UniProt P31170 44-227)”: the binding result in test [2] is recorded as “binds”.
